The assay deals with HA-MARCH5 C2A (mouse (from the printed RefSeq NP_081590)) (UniProt Q3KNM2). Kind of assay: co-IP; HEK293T cells cotransfected with HA-MARCH5 construct and Flag-TANK; lysis in TBS (50 mM Tris-Cl pH 7.4, 150 mM NaCl) with 1% Triton-X 100; immunoprecipitated with anti-HA, blotted with anti-Flag; 4°C.

By UniProt entry, the sequences of proteins in these tests, tags left out. Where a name states a change or a piece, a line headed by the entry shows the natural chain unless it says otherwise.
UniProt Q3KNM2: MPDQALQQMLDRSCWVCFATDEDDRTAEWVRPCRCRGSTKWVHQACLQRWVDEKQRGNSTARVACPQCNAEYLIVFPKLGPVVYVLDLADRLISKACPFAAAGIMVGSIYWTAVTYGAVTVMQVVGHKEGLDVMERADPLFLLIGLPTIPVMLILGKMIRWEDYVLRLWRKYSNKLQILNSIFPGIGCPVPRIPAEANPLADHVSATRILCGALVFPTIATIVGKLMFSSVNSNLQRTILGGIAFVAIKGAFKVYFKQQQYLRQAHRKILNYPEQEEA

These are yes or no findings as the source states them, for the method shown. In cells and extracts the contact can be indirect. A result given as binding can be weak or reduced; the word gives no strength. Where a sequence is shown, tags or fusion partners need not be part of it.

B1: Flag-TANK (wild type) (protein, UniProt P70347-2 1-414)
chain: MDKNIGEQLNRAYEAFRQACMDRDSAVRELQQKQTENYEQRIREQQEQLSFQQNLIDRLKSQLLLVDSSRDNSYGYVPLLEDSDRRKNNLTLDEPHDKVKLGTLRDKQSKVRRQEVSSGKESAKGLNIPLHHERDNIEKTFWDLKEEFHRICLLAKAQKDHLSKLNIPDIATDTQCSVPIQCTDKTEKQEALFKPQAKDDINRGMSCVTAVTPRGLGRDEEDTSFESLSKFNVKFPPMDNDSIFLHSTPEAPSILAPATPETVCQDRFNMEVRDNPGNFVKTEETLFEIQGIDPITSAIQNLKTTDKTNPSNLRATCLPAGDHNVFYVNTFPLQDPPDAPFPSLDSPGKAVRGPQQPFWKPFLNQDTDLVVPSDSDSELLKPLVCEFCQELFPPSITSRGDFLRHLNTHFNGET
As to B1, the binding entry was “binds”.

These data come from PMC3098239.
